# Assay results: PubChem BioAssay AID504467 (National Center for Advancing Translational Sciences (NCATS), 2011)
# Hit rate of the full screen: of about 330,000 compounds, about 7,700 (2.3%) were called active. This list was built around the results that the source calls inconclusive (neither active nor inactive); the mix of calls is not that of the screen. Calls follow the shape of the dose curve; as a rule, active = well fitted inhibition curve with a large enough effect; inconclusive = small, poorly fitted or top-dose-only effect, or effect the other way; inactive = flat fitted curve, though single readings scatter. Where the call is inconclusive, the potency comes from a doubtful curve fit.
# Experiment: qHTS screen for small molecules that inhibit ELG1-dependent DNA repair in human embryonic kidney (HEK293T) cells expressing luciferase-tagged ELG1; also: nearly all actives have a fitted effect of over 55% in size
# Conditions: HEK293T ELG1-luciferase reporter, luminescence, 16 h, DNA damage induced by 5-fluorouridine; series mostly up to 46.1 µM
# Summary of the method: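 HEK293T cells expressing luciferase-tagged ELG1 (2,000/well) received 5-Fluorouridine plus compound or DMSO for 16 hr at 37 °C. Luciferase was read by ONE-Glo luminescence after 30 min at room temperature.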
# Potency is read from the fitted curve at half-maximal effect.
row,Compound,Potency
1,CN(C)S(=O)(=O)c1ccc2nc(NC(=O)c3cccs3)sc2c1,"inconclusive: 2.06 µM [activator, full curve]"
2,FC(F)(F)c1cc(-c2ccccc2)nc(NCc2cccnc2)n1,"inconclusive: 18.4 µM [inhibitor, partial curve]"
3,CCCCCNC(=O)C1CCC(Cn2c(=S)[nH]c3ccccc3c2=O)CC1 (centres undefined),inactive
4,O=C(Nc1ccccc1N1CCOCC1)c1cc(-c2ccncc2)nc2ccccc12,active: 14.6 µM
5,COC(=O)c1c(NC(=O)COC(=O)[C@@H](NS(=O)(=O)c2ccc(C)cc2)C(C)C)sc2c1CCC2,"inconclusive: 29.1 µM [inhibitor, single point]"
6,COc1cccc(C(=O)Oc2c(Br)cc(Br)cc2/C=N/NC(=O)c2cc(C)[nH]n2)c1,"inconclusive: 2.59 µM [inhibitor, full curve]"
7,CC(C)(C)C(=O)Nc1nnc(-c2ccncc2)o1,inactive
8,O=c1c2c3c(sc2ncn1/N=C/c1ccccc1)CCCC3,"inconclusive: 5.8 µM [activator, partial curve]"
9,Oc1cccc(NC(=S)N=Nc2c(O)[nH]c3ccc(Br)cc23)c1,"inconclusive: 32.6 µM [inhibitor, partial curve, poor fit]"
10,CC(C)Cn1c(N)c(C(=O)COC(=O)[C@H](C)NC(=O)c2ccccc2Cl)c(=O)n(C)c1=O,inactive
11,COc1ccccc1S(=O)Cc1ccc(C(=O)NCc2ccccc2Cl)o1 (centres undefined),"inconclusive: 25.9 µM [inhibitor, partial curve, poor fit]"
12,COc1ccc(/C=N/n2cnn(Cc3ccccc3Cl)c2=S)cc1OC,"inconclusive: 20.6 µM [inhibitor, single point]"
13,O=C(c1ccccc1)c1ccccc1,inactive
14,c1ccc(-c2cn3cccnc3n2)cc1,"inconclusive: 10 µM [activator, partial curve, poor fit]"
15,O=C(NC(N1CCOCC1)C(Cl)(Cl)Cl)c1ccco1 (centres undefined),"inconclusive: 20.6 µM [activator, partial curve]"
16,COc1ccc(N=Cc2c(O)c3ccccc3n2C(C)=O)cc1,"inconclusive: 7.3 µM [activator, partial curve]"
17,O=C(c1c(F)cccc1F)N1CCN(CCOc2ccccc2)CC1,active: 20.6 µM
18,COc1c2ccoc2c(OC[C@@H](OC(C)=O)C(C)(C)O)c2oc(=O)ccc12,"inconclusive: 18.3 µM [inhibitor, single point]"
19,CCCNC(=O)C(=O)N/N=C/c1ccc(OCc2ccccc2)cc1,"inconclusive: 18.3 µM [activator, single point]"

# Single values from the list.
# CN(C)S(=O)(=O)c1ccc2nc(NC(=O)c3cccs3)sc2c1 | Potency: inconclusive: 2.06 µM [activator, full curve]
# COC(=O)c1c(NC(=O)COC(=O)[C@@H](NS(=O)(=O)c2ccc(C)cc2)C(C)C)sc2c1CCC2 | Potency: inconclusive: 29.1 µM [inhibitor, single point]
